Measured values taken from the supplement of paper PMC3334620.
Whole data set: some 33,000 sequences, median “E-score (-0.5 to 0.5)” near -0.016, cut for the highest 2% near 0.3. This is one part of the list.

Each sequence was assayed against T1, Yer184c (UniProt P39961) (assay: PBM E-score (8-mer binding enrichment) (E-score (-0.5 to 0.5)); higher = stronger / more preferred TF binding). Settings: protein concentration: 100 nM; construct: GST-full length.
T1 sequence: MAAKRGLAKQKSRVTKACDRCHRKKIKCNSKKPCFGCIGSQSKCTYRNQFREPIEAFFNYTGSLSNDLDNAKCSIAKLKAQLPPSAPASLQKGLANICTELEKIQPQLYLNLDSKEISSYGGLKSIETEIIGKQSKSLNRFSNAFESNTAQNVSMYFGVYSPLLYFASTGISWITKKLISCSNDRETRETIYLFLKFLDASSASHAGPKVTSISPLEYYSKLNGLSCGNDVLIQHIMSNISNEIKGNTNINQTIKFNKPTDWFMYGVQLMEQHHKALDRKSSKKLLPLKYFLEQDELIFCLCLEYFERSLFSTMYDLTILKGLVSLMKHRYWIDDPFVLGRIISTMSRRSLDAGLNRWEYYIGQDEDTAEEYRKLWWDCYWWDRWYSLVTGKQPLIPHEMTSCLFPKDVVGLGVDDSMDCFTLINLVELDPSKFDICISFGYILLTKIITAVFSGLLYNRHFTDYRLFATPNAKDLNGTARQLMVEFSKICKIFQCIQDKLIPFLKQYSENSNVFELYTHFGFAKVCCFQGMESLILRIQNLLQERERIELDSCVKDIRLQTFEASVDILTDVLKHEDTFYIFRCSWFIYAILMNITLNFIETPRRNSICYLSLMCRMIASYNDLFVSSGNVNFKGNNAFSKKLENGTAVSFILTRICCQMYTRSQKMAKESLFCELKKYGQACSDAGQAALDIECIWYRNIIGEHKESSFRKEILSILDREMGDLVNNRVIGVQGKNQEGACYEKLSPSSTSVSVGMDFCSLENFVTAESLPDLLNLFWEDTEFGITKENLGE
Method in brief: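 Universal all-10-mer Agilent arrays, double-stranded by primer extension on fresh or once-stripped slides, were probed with about 100-200 nM GST-tagged yeast transcription factors made by PURExpress. Fluorescent anti-GST detected bound protein, and masliner normalised the scans. E-scores from the Universal PBM Analysis Suite were given to each ungapped eight-base word pooled with its reverse complement.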

| Sequence | PBM E-score |
| --- | --- |
| AAAGTAGT | -0.00674 |
| CATTAGGG | -0.12 |
| AGACGCCT | -0.203 |
| ACGTAGTG | -0.226 |
| AAGACGCC | 0.0681 |
| CTAATATA | 0.118 |
| AGGCCAGG | -0.26 |
| ATCAAAAG | 0.11 |
| GGCCTACC | -0.147 |
| TAACTGGA | -0.111 |
| GCCGTGCA | -0.0105 |
| CCTCGTAC | 0.00997 |
| AACTTTTA | 0.196 |
| ATGAGTAC | -0.0717 |
| CCTAGGTC | -0.139 |
| CTGTCAAG | -0.14 |
| CCTCAAAA | 0.0505 |
| GCTTTACC | -0.00898 |
| CTGACAAG | 0.0434 |
| GGAACCCC | -0.223 |
| GCCTGAAA | 0.191 |
| GCGCACCC | -0.028 |
| ACACACGG | 0.111 |
| AACCGACC | 0.147 |
| ATGCTGAG | -0.261 |

| Sequence | PBM E-score |
| --- | --- |
| CAACGCAG | -0.0829 |
| GAATAACC | 0.0185 |
| ACAGACGC | -0.0642 |
| ACCCTTTC | -0.0222 |
| GAACGTGA | 0.0388 |
| GCCTCGTA | 0.00566 |
| GTAGCCGA | 0.165 |
| CACCTGCA | -0.131 |
| CATGCTAA | -0.0701 |
| GACGCTCC | -0.0887 |
| CGTCGGAG | 0.0883 |
| GGGCGCCC | 0.0854 |
| ATAAACCG | 0.112 |
| CACGTCTC | -0.0953 |
| CTAATGCA | 0.0794 |
| AGTGTCAA | 0.022 |
| ACTAGACT | -0.26 |
| CAGATATC | 0.0611 |
| ACGGTGCC | 0.136 |
| ACAAAGTC | -0.106 |
| AGTGAAAA | 0.158 |
| CCGCTGAC | -0.0991 |
| CCCGCACG | -0.0578 |
| ACCTAGGT | -0.213 |
| GAATCACC | -0.0203 |

| Sequence | PBM E-score |
| --- | --- |
| GTATCGCA | 0.0506 |
| CGGGACCG | 0.31 |
| AATAAGCC | -0.0336 |
| ACTGGTCT | -0.135 |
| CGCAGTTA | 0.0714 |
| CCGCCTGA | -0.12 |
| ATGAGCAT | 0.106 |
| CAGGTTTA | 0.0392 |
| ATGAGAAA | 0.11 |
| TAAGACGA | -0.0596 |
| AGCGATGA | -0.0495 |
| CAGAAACA | 0.0511 |
| GCAAACTA | 0.0897 |
| AATCCGAT | 0.275 |
| GGACTGAA | 0.0645 |
| CCAGTGTC | -0.169 |
| ACGGAATG | 0.167 |
| AGCGGTTC | -0.037 |
| ACACCTAA | -0.00993 |
| TCATAAAA | 0.192 |
| CTAAATGA | -0.0287 |
| CCGCGGGC | 0.25 |
| AAGCCCTC | -0.202 |
| AAAGTGGT | -0.106 |
| ACACATAC | -0.0164 |

7 entries picked at random from the list so far:

| Sequence | PBM E-score |
| --- | --- |
| GTATCGCA | 0.0506 |
| CAGGTTTA | 0.0392 |
| ACACCTAA | -0.00993 |
| GGACTGAA | 0.0645 |
| AAGCCCTC | -0.202 |
| TCATAAAA | 0.192 |
| AGCGGTTC | -0.037 |

Following part

| Sequence | PBM E-score |
| --- | --- |
| ATCAAGCC | 0.0569 |
| CCTAACCG | -0.0409 |
| ATCTCTGA | -0.107 |
| CAAAACGG | 0.188 |
| AAACCGAC | 0.0341 |
| GCTCTTCC | 0.0925 |
| ACTTGAAG | -0.0169 |
| ATTCATCG | 0.0799 |
| ACACTGAG | -0.154 |
| CGTGCCGC | 0.034 |
| AGAATCAT | 0.0874 |
| CTCGAGCA | 0.0232 |
| CGGCCTTA | 0.291 |
| ACAAGTGC | -0.264 |
| CTTCATCC | -0.0447 |
| AACACCCT | -0.14 |
| ACAGATGA | -0.112 |
| ACGGGGAA | 0.021 |
| AAACCAGA | 0.0295 |
| AGCGATGC | -0.237 |
| GCGTGGCC | -0.214 |
| ATTGGTAA | -0.00982 |
| AAGTTGAC | 0.0297 |
| GGAGCAAC | 0.00011 |
| ACAGCGCT | 0.00749 |

| Sequence | PBM E-score |
| --- | --- |
| CATCACCC | -0.152 |
| CAAAAGCA | 0.0284 |
| GTGAAAAC | 0.0796 |
| AGCGAAGC | -0.11 |
| AAATCCGG | 0.394 |
| GGGAAACC | 0.121 |
| GAACCGAA | 0.288 |
| TTAATCAA | 0.198 |
| CCGAGACC | 0.176 |
| GTACTATA | 0.176 |
| CAGGAAAC | 0.117 |
| AACTTACG | 0.0113 |
| GCTATTAC | 0.0192 |
| GGGAATAC | 0.0278 |
| GGTCAGTA | -0.0202 |
| GGATGCCA | -0.169 |
| CCACTTGA | -0.0483 |
| ACAGTCTA | -0.0163 |
| TAGCACTA | -0.16 |
| AGGTAAAT | -0.0404 |
| CGGGGCTC | -0.147 |
| GGTGATAA | -0.105 |
| ATCCCCCG | -0.116 |
| CTAAACAA | -0.068 |
| ACCAACCT | -0.143 |

Part of the list above in another layout.
Sequence | PBM E-score
ACACACGG | 0.111
GCGTGGCC | -0.214

The listing continues.

| Sequence | PBM E-score |
| --- | --- |
| CGAGGGGA | -0.0468 |
| CGTTAATC | 0.0724 |
| CTAATATC | 0.181 |
| GCCAGATA | -0.0238 |
| ACCATCAA | -0.0539 |
| CCGTCAGC | 0.0445 |
| CTCACTAA | -0.0113 |
| AACTGCCA | -0.134 |
| AGCGCATA | -0.0254 |
| CGCTCAGA | 0.0821 |
| CCTTCGGA | 0.327 |
| ATCCCACG | -0.209 |
| AGCATACG | -0.0401 |
| CTTAGGTC | 0.0331 |
| CCTATAGC | -0.253 |
| ACGTCATA | 0.0381 |
| AGTCCTTG | -0.0369 |
| GATGGCAA | 0.12 |
| GGACGGAC | -0.0479 |
| TAAAGCTA | -0.0256 |
| CGCCGCTA | 0.044 |
| AGTGCCCA | -0.152 |
| AACTGCCG | 0.21 |
| CGCAAGAA | 0.221 |
| CCGAGACG | 0.246 |

| Sequence | PBM E-score |
| --- | --- |
| GCAAGAAA | 0.161 |
| ATCGTATC | -0.0614 |
| AATACCGG | 0.336 |
| CGACTTTC | 0.0556 |
| GCACAGTA | 0.00244 |
| CATGGGAC | -0.14 |
| AACGGTCA | 0.149 |
| GCAGGGCC | -0.263 |
| TAGATACA | 0.00426 |
| AAGGCGTC | -0.15 |
| AACCACAG | -0.208 |
| GTCGAGGA | -0.267 |
| ACCATGCC | -0.0758 |
| CAGGCCGG | 0.108 |
| ACGAAATA | 0.11 |
| GCCGTACC | 0.178 |
| ATCGTCAG | -0.0617 |
| CTACTGCA | -0.16 |
| ATCACTGA | 0.0166 |
| CAAGAGAG | -0.0284 |
| GAAATATA | 0.278 |
| CGCCTGTC | -0.162 |

A second format for part of the listing above:
Sequence,PBM E-score
CGCAGTTA,0.0714
AGCATACG,-0.0401
